PubChem BioAssay AID1224830, NIAID, 2016

- Test: 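Host factors that control LPS-induced TNF expression in human macrophages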 (primary screen)
- Cell system: human THP-1 monocytic leukaemia cells, TNF dual-luciferase reporter clone, PMA-differentiated to macrophage-like cells
- Knock-down reagent: siRNA pool against human genes, 50 nM
- Time to read-out: LPS for 4 h, given about 3 days after siRNA transfection
- Conditions: bacterial LPS (TLR4 ligand), 10 ng/ml
- Measurement: 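Ratio of firefly to renilla light, scaled to the plate median and expressed as a robust z-score per replicate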
- Direction: TNF reporter robust z-score: higher = stronger TNF reporter response to LPS
- Hit rule: 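a well is active when its z-score exceeds 2.8 or falls below -1.5; control wells carry no call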
Here is an unselected part of about 18,000 reagents. Of all reagents, about 2,900 (16%) are marked active. 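Calls are made per well; low scores hint the gene aids the LPS response, high scores that it dampens it.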 Repeated entries: four replicate wells of each siRNA pool.

target gene | TNF reporter robust z-score | Outcome
MLH1 | -0.27 | inactive
MLH1 | 0.85 | inactive
MLH1 | -0.12 | inactive
MLH1 | 0.26 | inactive
VIP | 1.85 | inactive
VIP | 2 | inactive
VIP | 0.45 | inactive
VIP | 1.16 | inactive
FAM222A | -0.14 | inactive
FAM222A | 0.48 | inactive
FAM222A | 0.13 | inactive
FAM222A | 0 | inactive
UTP4 | -0.04 | inactive
UTP4 | 0.45 | inactive
UTP4 | -1.34 | inactive
UTP4 | -0.69 | inactive
MAPK12 | -0.34 | inactive
MAPK12 | 0.61 | inactive
MAPK12 | -0.41 | inactive
MAPK12 | -0.58 | inactive
TMEM263 | -1.36 | inactive
TMEM263 | -0.61 | inactive
TMEM263 | -0.5 | inactive
TMEM263 | 0.22 | inactive
PDIA5 | -1.29 | inactive
PDIA5 | -0.85 | inactive
PDIA5 | -0.8 | inactive
PDIA5 | -0.11 | inactive
MRPL44 | -0.45 | inactive
MRPL44 | -0.05 | inactive
MRPL44 | 0.2 | inactive
MRPL44 | -0.98 | inactive
SPECC1 | -0.66 | inactive
SPECC1 | -0.92 | inactive
SPECC1 | 0.16 | inactive
SPECC1 | -0.41 | inactive
MFAP1 | -0.82 | inactive
MFAP1 | -1.54 | active
MFAP1 | -1.65 | active
MFAP1 | -0.8 | inactive
ZNF142 | -0.83 | inactive
ZNF142 | -0.68 | inactive
ZNF142 | 0.01 | inactive
ZNF142 | -0.35 | inactive
NUMA1 | -0.45 | inactive
NUMA1 | -0.38 | inactive
NUMA1 | -0.67 | inactive
NUMA1 | -1.29 | inactive

Entries listed so far with an active call (2):
target gene | TNF reporter robust z-score | Outcome
MFAP1 | -1.54 | active
MFAP1 | -1.65 | active
